Source: patent US20220298163A1, “BTK INHIBITORS WITH IMPROVED DUAL SELECTIVITY” (BEIGENE, LTD., priority 2017, published 2022)

Assay: Rat pharmacokinetic study
Type: in vivo, Male Sprague Dawley rats
Details: male, Sprague Dawley, plasma

[2H]C([2H])([2H])Oc1cc(-c2nn3c(c2C(N)=O)NCCC3C2CCN(C(=O)C=C)CC2)cc(OC([2H])([2H])[2H])c1C (single isomer, unassigned) [Example A11b, (R or S)-7-(1-acryloylpiperidin-4-yl)-2-(3,5-bis(methoxy-d3)-4-methylphenyl)-4,5,6,7-tetrahydropyrazolo[1,5-a]pyrimidine-3-carboxamide]
AUC(0-inf) (IV 1 mg·kg^−1 / PO 5 mg·kg^−1 study, route not given): 4800 ng·h/mL
bioavailability (oral bioavailability, PO 5 mg·kg^−1 vs IV 1 mg·kg^−1): 69.5%
clearance (single IV 1 mg·kg^−1): 13.7 mL/min/kg
Cmax (single PO 5 mg·kg^−1): 2250 ng/mL
